PubChem BioAssay AID686943 | Drosophila RNAi Screening Center | 2013
Test: 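Search across the genome for regulators of signalling from receptor tyrosine kinase to ERK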 (primary screen). System: Drosophila S2R+ haemocyte-like cells expressing YFP-tagged ERK (Rolled). Reagents: long dsRNA against Drosophila genes. Challenge: insulin stimulation versus unstimulated cells; dose and duration not given. Measured: 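Per-plate z-scores of phospho-ERK immunostaining normalised to YFP-tagged ERK, measured with and without insulin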. Direction: replicate 1, z-score of dpERK with insulin and replicate 2, z-score of dpERK with insulin: higher = more active ERK per ERK-YFP after insulin; replicate 1, z-score of dpERK under basal conditions: higher = more basal active ERK per ERK-YFP; replicate 1, z-score of ERK-YFP with insulin: higher = more YFP-tagged ERK signal.
The screen tested about 23,000 reagents; this is an unselected part of those with a known target gene and a result. 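Extra replicates exist only for a retested subset of genes; insulin dose and duration not given; both raised and lowered dpERK matter.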 A plus sign joins genes that one reagent is predicted to hit. Not stated in the record: the amount of reagent, the time to read-out.

Target gene | amplicon | replicate 1, z-score of dpERK with insulin | replicate 2, z-score of dpERK with insulin | replicate 1, z-score of dpERK under basal conditions | replicate 1, z-score of ERK-YFP with insulin
CG12729 (GeneID 31515) | DRSC17884 | 0.84 | 0.94 | 0.2 | 0.14
CG17105 (GeneID 34466) | DRSC02574 | 0.61 | 1 | -0.2 | 1.47
Taf10b + Taf10 | DRSC00793 | 0.54 | 1.98 | -1.27 | 1.03
AP-2alpha (GeneID 33211) | DRSC00800 | 1.22 | 1.42 | 1.07 | 0.17
CG9500 (GeneID 33888) | DRSC03237 | 0.57 | -0.3 | 1.49 | 0.25
Or85f (GeneID 41119) | DRSC16769 | 0.6 | -0.59 | 0.67 | -0.17
CG7276 (GeneID 39668) | DRSC10797 | 0.04 | -0.31 | -0.68 | -0.25
Vps36 (GeneID 39523) | DRSC09785 | -0.04 | -0.47 | 2.84 | 0.09
Amy-d + Amy-p | DRSC21242 | 0.19 | -0.3 | 0.04 | -0.09
CG4066 (GeneID 41493) | DRSC15541 | 0.43 | 0.82 | 0.85 | -0.3
CG9213 (GeneID 32490) | DRSC20170 | -0.38 | -0.24 | 0.24 | -0.61
Ras85D (GeneID 41140) | DRSC16814 | -6.29 | -5.58 | -3.91 | -3.14
CG34337 (GeneID 5740569) | DRSC18435 | 0.01 | 0.6 | -0.21 | 0.3
CG6191 (GeneID 36513) | DRSC05938 | -0.8 | -1.84 | -2.08 | 2.2
CG32655 (GeneID 318143) | DRSC18925 | -0.16 | -0.31 | 1.58 | 0.38
CG42366 (GeneID 34319) | DRSC02760 | -0.32 | 0.64 | 0.82 | -0.14
CG30178 (GeneID 246501) | DRSC21911 | -0.33 | 0.75 | 2.14 | 0.35
CG12206 (GeneID 31316) | DRSC17828 | -3.87 | -0.03 | 0.43 | 0.46
Eig71Ea (GeneID 39700) | DRSC11148 | 0.67 | 0.97 | 0.32 | 0.25
Nup93-2 (GeneID 41804) | DRSC16221 | 0.02 | -0.61 | 0.93 | 0.98
Pitslre (GeneID 40292) | DRSC11874 | 1.66 | 0.89 | 0.25 | -1.29
CheB38c (GeneID 35346) | DRSC02389 | -0.64 | -0.6 | -0.7 | -0.96
CG17321 (GeneID 35144) | DRSC02598 | 0.47 | 0.6 | 0.31 | -0.42

A stretch of the results above:
Target gene | amplicon | replicate 1, z-score of dpERK with insulin | replicate 2, z-score of dpERK with insulin | replicate 1, z-score of dpERK under basal conditions | replicate 1, z-score of ERK-YFP with insulin
CG4066 (GeneID 41493) | DRSC15541 | 0.43 | 0.82 | 0.85 | -0.3
CG9213 (GeneID 32490) | DRSC20170 | -0.38 | -0.24 | 0.24 | -0.61
Ras85D (GeneID 41140) | DRSC16814 | -6.29 | -5.58 | -3.91 | -3.14
